Assay results taken from patent publication US20210353648A1, “GRAPIPRANT UNIT DOSAGE FORMS” (Arrys Therapeutics, Inc., priority 2018, published 2021).
Entries after “also recorded” stand apart in the source; their conditions may differ. At least one read-out could not be matched to a standard name with certainty.

Assay: Phase 1 crossover food effect study of 375 mg grapiprant tablets: pharmacokinetics
Assay type: in vivo, human
Details: 375 mg tablets, standard high-fat meal compared to fasted
Protocol: This study was a randomized, open-label, single dose, 2-period crossover design. Each subject participated in 2 study periods. In each study period, subjects received a dose of 375 mg administered as 3×125 mg tablets of grapiprant under fasted or fed conditions in a crossover manner according to a randomized dosing sequence. The fed condition consisted of a standardized high-fat meal. Following an initial screening period of no longer than 28 days, 12 eligible subjects were to be randomized to the 2 treatment sequences and 2 treatment period sessions as shown in Table 6-1.
In each study period, subjects received 375 mg grapiprant (as 3×125 mg tablets) under either fed or fasted conditions. […]
Blood samples were collected at the following times: 0 (just prior to dosing), 0.5, 1, 1.5, 2, 2.5, 3, 4, 6, 8, 12, 16, 24 and 48 hours following each dosing. The primary pharmacokinetic endpoints of the study were AUC(0-tlast) (area under the serum concentration-time curve from time 0 to the time of the last quantifiable concentration), AUC(0-inf) (AUC from time 0 to infinite time), and Cmax (maximum observed serum concentration) of serum grapiprant. […]
Log-transformed AUC(0-inf), AUC(0-tlast) and Cmax were each analyzed using a mixed effects model containing sequence, treatment (fed and fasted), and period as the fixed effects and subject (within sequence) as the random effect. […]

## CCc1nc2c(C)nc(C)cc2n1-c1ccc(CCNC(=O)NS(=O)(=O)c2ccc(C)cc2)cc1 [Grapiprant, N-((4-(2-ethyl-4,6-dimethyl-1H-imidazo[4,5-c]pyridin-1-yl)phenethyl)carbamoyl)-4-methylbenzenesulfonamide]
  effect of food on extent of absorption / systemic exposure (AUC): not affected by food; also recorded: no effect on the extent of the absorption
